Source: article PMC8401265, “Evolutionary Diversification of Host-Targeted Bartonella Effectors Proteins Derived from a Conserved FicTA Toxin-Antitoxin Module” (Microorganisms, 2021)
Results are given in words; binding and its absence hold for the method and conditions named. Binding seen in cells or lysates may run through a third protein. Binding can be weak; no strength is given.

Target: T1, Bartonella henselae BepA, FIC and OB domains (amino acid residues 1-296) (B. henselae) (UniProt Q6G2A9)
T1 sequence: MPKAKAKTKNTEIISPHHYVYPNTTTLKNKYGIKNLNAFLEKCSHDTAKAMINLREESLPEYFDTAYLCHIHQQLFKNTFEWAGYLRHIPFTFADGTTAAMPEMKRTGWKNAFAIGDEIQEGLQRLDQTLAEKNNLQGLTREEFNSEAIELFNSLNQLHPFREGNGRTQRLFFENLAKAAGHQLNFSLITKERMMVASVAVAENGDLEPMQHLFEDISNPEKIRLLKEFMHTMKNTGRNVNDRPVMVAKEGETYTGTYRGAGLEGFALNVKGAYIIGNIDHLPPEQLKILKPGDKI
Assay: crystal structure; co-expressed and co-purified complex, 20 mg/mL in 20 mM HEPES, 150 mM NaCl, 2 mM MgCl2, 1 mM TCEP; hanging-drop vapor diffusion at 22 °C; reservoir 0.2 M di-sodium malonate, 20% w/v PEG 3350; both purified

Substance: Bartonella henselae BiaA antitoxin (FicA homolog), full length (B. henselae)
- binding: binds
